About 22,000 (6.9%) of roughly 320,000 compounds were called active. The shares of active, inactive and inconclusive entries below differ from those in the screen. Calls follow the shape of the dose curve; as a rule, active = well fitted inhibition curve with a large enough effect; inconclusive = small, poorly fitted or top-dose-only effect, or another doubt; inactive = no such curve, though single readings can be large or run the other way. A potency beside an inconclusive call is a rough fit, not a confirmed value.
Assay: Primary qHTS for delayed death inhibitors of the malarial parasite plastid, 96 hour incubation
Conditions: P. falciparum luciferase reporter growth; series mostly up to 28.7 µM; activity change, negative = inhibition: at the top concentration
In short: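 96 h incubation, 37 C, 5% CO2, of luciferase-reporter P. falciparum-infected RBCs (2% hematocrit, 0.05% parasitemia final) with test compounds; endpoint luminescence.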
% is scaled to controls: 0 for no effect and ±100 for the full control effect; potency is read from the fitted curve at half-maximal effect.

SMILES | activity change, negative = inhibition | Potency
Cc1ccc(C(=O)N(CCN(C)C)CC2CCCN(Cc3ccccc3F)C2)cc1C (stereo not given) | inactive: 30.2% | –
Cc1ccc2cc(CCNC(=O)c3ccc(S(=O)(=O)N4CCOCC4)cc3)c(=O)[nH]c2c1 | – | active: 13.1 µM
CC(=O)c1ccc(N2CCN(CC(O)COC(c3ccccc3)c3ccccc3)CC2)cc1 (stereo not given) | inactive: -6.99% | –
O=C(NC(=S)NCCN1CCOCC1)c1ccccc1 | – | inconclusive: 18.5 µM [inhibitor, single point]
Cc1ccc(C(C)C)c(OCC(=O)Nc2ccc3c(c2)nc(CN2CCCC2)n3C)c1 | – | active: 13.1 µM
CCC1CCC(C(=O)NC(C(=O)Nc2ccc3c(c2)OCCO3)C(C)C)CC1 (stereo not given) | – | active: 9.28 µM
CCn1cc(/C=C(\NC(=O)c2ccc(OC)cc2)C(=O)N2CCOCC2)c2ccccc21 | – | inconclusive: 11.7 µM [inhibitor, single point]
CCc1cc(=O)oc2c(C)c(OCC(=O)NCCCN3CCCC3=O)ccc12 | – | inconclusive: 11.7 µM [inhibitor, single point]
COCCn1cnc2c1c(=O)n(Cc1cc(C(C)=O)ccc1OC)c(=O)n2Cc1ccccc1 | – | inconclusive: 10.4 µM [inhibitor, single point]
O=C1c2ccccc2NC(c2ccccc2)N1CCCN1CCOCC1 (stereo not given) | – | inconclusive: 0.037 µM [inhibitor, full curve, poor fit]
CC(C)(C)OC(=O)N1Cc2ccccc2C[C@H]1C(=O)NCC(=O)NC1CCCCC1 | – | inconclusive: 18.5 µM [inhibitor, single point]
Clc1ccc(-c2c[n+](Cc3ccc(Cl)c(Cl)c3)c3n2CCC3)cc1 | – | inconclusive: 0.262 µM [inhibitor, full curve]
Cc1c(Cl)cccc1NC(=O)Nc1ccccc1C(N)=O | – | inconclusive: 18.5 µM [inhibitor, single point]
COC(=O)c1ccc(CNCC(O)COc2ccc(-c3ccccc3)cc2)cc1 (stereo not given) | inactive: 11.2% | –
CCOc1ccc(C(=O)NCCCCNC(=O)c2ccc(OCC)cc2)cc1 | inactive: 5.32% | –
CC(=O)Nc1ccc2nc3ccccc3nc2c1 | inactive: 219% | –
COc1ccc(-c2cc(C(=O)OCC(=O)Nc3cc(C)on3)c3ccccc3n2)cc1OC | inactive: 56% | –
CCOc1ccc(CCNC(=O)Cn2nc(C)c3c(C)n(-c4ccccc4)nc3c2=O)cc1OCC | – | inconclusive: 11.7 µM [inhibitor, single point]
COc1cc2ccccc2cc1C(=O)NNC(=O)c1ccccc1O | – | inconclusive: 5.86 µM [inhibitor, partial curve, poor fit]
CC(C)OP(=O)(OC(C)C)/C(C=O)=N\Nc1ccc([N+](=O)[O-])cc1 | – | inconclusive: 20.8 µM [inhibitor, partial curve, poor fit]
CCC(=O)N1c2ccc(S(=O)(=O)CCC(=O)N3CCn4c3nc3ccccc34)cc2CC1C (stereo not given) | – | inconclusive: 11.7 µM [inhibitor, single point]
Cc1ccc(NC(=O)COC(=O)C(CC(C)C)N2C(=O)C3CC=CCC3C2=O)c(C)c1 (stereo not given) | – | inconclusive: 4.15 µM [inhibitor, single point]
Cc1ccc2cc(C)c(SCC(=O)Nc3ccc(S(=O)(=O)N4CCCC4)cc3)nc2c1 | – | inconclusive: 18.5 µM [inhibitor, single point]

3 entries from above, ordered by molecular weight, ascending:
SMILES | activity change, negative = inhibition | Potency
CCc1cc(=O)oc2c(C)c(OCC(=O)NCCCN3CCCC3=O)ccc12 | – | inconclusive: 11.7 µM [inhibitor, single point]
CCC1CCC(C(=O)NC(C(=O)Nc2ccc3c(c2)OCCO3)C(C)C)CC1 (stereo not given) | – | active: 9.28 µM
COCCn1cnc2c1c(=O)n(Cc1cc(C(C)=O)ccc1OC)c(=O)n2Cc1ccccc1 | – | inconclusive: 10.4 µM [inhibitor, single point]

Remaining list, next part

SMILES | activity change, negative = inhibition | Potency
CCCCN(CC)CCCNC(=O)c1cn(C)c2ccc(S(=O)(=O)N(C)C3CCCCC3)cc2c1=O | – | active: 14.7 µM
COc1ccc(NC(=S)N2CCc3ccccc32)cc1OC | inactive: -16.1% | –
CCN(CC)C(=O)COc1coc(CN2CCN(c3ccc(F)cc3)CC2)cc1=O | – | inconclusive: 11.7 µM [inhibitor, single point]
O=C(O)CC1(CC(=O)NCc2ccc(Cl)cc2)CCCCC1 | inactive: 23.4% | –
Cc1cccc2sc(N(CCCN(C)C)C(=O)COc3ccc(Cl)cc3)nc12 | – | inconclusive: 1.04 µM [inhibitor, partial curve, poor fit]
Cc1ccc(C2=NCCn3nc4cc(C(F)(F)F)ccc4c32)cc1 | inactive: 37.7% | –
O=C(Nc1ncc(Cc2cccc(Cl)c2)s1)C1CCCO1 (stereo not given) | inactive: 101% | –
COc1ccc(OC)c(-c2cc(C(F)(F)F)c3c(n2)sc2c(O)cc(=O)[nH]c23)c1 | inactive: 16.9% | –
COCCNC(=O)CN1C(=O)COc2ccc(Cl)cc21 | inactive: -10.1% | –
Cc1ccc(-c2nc(NC(=O)c3cc(C(C)(C)C)nn3C)sc2C)cc1Cl | – | active: 2.08 µM
COc1ccc(NS(=O)(=O)c2cccc(C(=O)NCC(c3ccc(F)cc3)N3CCOCC3)c2)cc1 (stereo not given) | – | inconclusive: 7.38 µM [inhibitor, single point]
CCCc1cc(=O)oc2cc(C)cc(OCC(=O)NCc3ccncc3)c12 | – | active: 8.28 µM
Nc1ccc(C#Cc2ccc3c(=O)c4ccccc4oc3c2)cc1 | inactive: -12.8% | –
COc1ccc(Br)cc1CN(C)CC(=O)Nc1cc([N+](=O)[O-])ccc1OC | – | inconclusive: 4.15 µM [inhibitor, single point]
CCn1cc(C(=O)O)c(=O)c2cc(S(=O)(=O)N3CCCCCC3)ccc21 | – | inconclusive: 18.5 µM [inhibitor, single point]
COc1ccc(S(=O)(=O)N2CCCCCC2)cc1NC(=O)CN1C(=O)NC(C)(c2ccc(C)cc2)C1=O (stereo not given) | – | inconclusive: 11.7 µM [inhibitor, partial curve]
CN(C(=O)Oc1ccc(C(C)(C)C)cc1)c1ccccc1 | – | inconclusive: 6.57 µM [inhibitor, partial curve]
CCCC(=O)N=C1SC2CS(=O)(=O)CC2N1c1ccc(CC)cc1 (stereo not given) | – | inconclusive: 2.08 µM [inhibitor, full curve]
CCOc1ccc(/C=C/C(=O)NC2CCCCC2)cc1 | – | inconclusive: 18.5 µM [inhibitor, single point]
COCCCNC(=S)N1CCC(NC(=O)Nc2ccc(C)cc2)CC1 | inactive: 9.92% | –
O=S(=O)(Nc1ccc2c(c1)OCCO2)c1cccs1 | – | inconclusive: 11.7 µM [inhibitor, partial curve]
O=C(Cn1ncc2c3ccccc3n(Cc3ccccc3F)c2c1=O)NCCN1CCOCC1 | – | inconclusive: 11.7 µM [inhibitor, single point]

Reference: PubChem BioAssay AID504834 (National Center for Advancing Translational Sciences (NCATS), 2011)
